The text below walks through data of patent US8828401B2 (Pfizer Inc., priority 2011, dated 2014).

A short description of this series: general procedure: solution-phase peptide synthesis; HATU.
[1] abbreviates: late stage modification step, HPLC Protocol T.
The mark [2] stands for this setting: late stage modification step, HPLC (Protocol A).
Where [3] appears, read: coupling step, HPLC (Protocol A).
Where [4] appears, read: late stage modification step, HPLC Protocol U, hydrochloride salt.
Setting [5] is: late stage modification step, TFA salt.

In the case of “N-[(3R,4S,5S)-1-{(2S)-2-[(1R,2R)-3-{[2-(cyclohepta-2,4,6-trien-1-yl)ethyl]amino}-1-methoxy-2-methyl-3-oxopropyl]pyrrolidin-1-yl}-3-methoxy-5-methyl-1-oxoheptan-4-yl]-N˜2˜-{[(3R)-3-fluoropyrrolidin-3-yl]carbonyl}-N-methyl-L-valinamide”, the “final HPLC purity” value under setting [1] came out at 84%. For the same substance, the step yield (late stage modification step, over two steps) came out at 20% over two steps.

In the case of “N-{(2R,3R)-3-methoxy-3-[(2S)-1-{(3R,4S,5S)-3-methoxy-5-methyl-4-[methyl(N-{[(2S)-2-methylpiperidin-2-yl]carbonyl}-L-valyl)amino]heptanoyl}pyrrolidin-2-yl]-2-methylpropanoyl}-L-phenylalanine, trifluoroacetic acid salt”, the “final HPLC purity” value (late stage modification step, HPLC Protocol U) was found to be 98%.

Regarding “2-methylalanyl-N-[(3R,4S,5S)-1-{(2S)-2-[(1R,2R)-3-{[(1S)-1-carboxy-2-phenylethyl]amino}-1-methoxy-2-methyl-3-thioxopropyl]pyrrolidin-1-yl}-3-methoxy-5-methyl-1-oxoheptan-4-yl]-N-methyl-L-valinamide, hydrochloride salt”, the step yield (late stage modification step, hydrochloride salt) is 71%.

For “D-isovalyl-N-{(1S,2R)-4-{(2S)-2-[(1R,2R)-3-{[(1S)-1-benzyl-2-methoxy-2-oxoethyl]amino}-1-methoxy-2-methyl-3-oxopropyl]pyrrolidin-1-yl}-2-methoxy-1-[(1S)-1-methylpropyl]-4-oxobutyl}-N-methyl-L-valinamide”, for the setting “coupling step”, the step yield is recorded as 30%.

In turn, “N^2-[(1-aminocyclopentyl)carbonyl]-N-[(3R,4S,5S)-3-methoxy-1-{(2S)-2-[(1R,2R)-1-methoxy-2-methyl-3-{[(1S)-2-phenyl-1-(1,3-thiazol-2-yl)ethyl]amino}-3-thioxopropyl]pyrrolidin-1-yl}-5-methyl-1-oxoheptan-4-yl]-N-methyl-L-valinamide” displayed a step yield (late stage modification step) of 61%. The “final HPLC purity” value under setting [2] is on record as greater than 72%.

In turn, “methyl N-[(2R,3R)-3-{(2S)-1-[(3R,4S,5S)-4-{[N-(3-amino-2,2-dimethylpropanoyl)-L-valyl](methyl)amino}-3-methoxy-5-methylheptanoyl]pyrrolidin-2-yl}-3-methoxy-2-methylpropanoyl]-L-phenylalaninate” yielded a step yield (late stage modification step) of 56%.

Take “1,2-dimethyl-D-prolyl-N-[(3R,4S,5S)-3-methoxy-1-{(2S)-2-[(1R,2R)-1-methoxy-3-{[(2S)-1-methoxy-1-oxo-3-(1,2,3,4-tetrahydroquinolin-6-yl)propan-2-yl]amino}-2-methyl-3-oxopropyl]pyrrolidin-1-yl}-5-methyl-1-oxoheptan-4-yl]-N-methyl-L-valinamide”: under “coupling step”, the step yield is 48%. Besides, the “final HPLC purity” value under setting [3] was 100%.

“1,2-dimethyl-D-prolyl-N-{(1S,2R)-4-{(2S)-2-[(1R,2R)-3-{[(1S)-1-carboxy-2-phenylethyl]amino}-1-methoxy-2-methyl-3-oxopropyl]pyrrolidin-1-yl}-2-methoxy-1-[(1S)-1-methylpropyl]-4-oxobutyl}-N-methyl-L-valinamide” registered a step yield (coupling step) of 78%. For the same substance, the “final HPLC purity” value under setting [3] was greater than 98%.

Under “late stage modification step”, “(2R)—N-[(2S)-1-{[(3R,4S,5S)-1-{(2S)-2-[(1R,2R)-3-{[2-(cyc lohepta-2,4,6-trien-1-yl)ethyl]amino}-1-methoxy-2-methyl-3-oxopropyl]pyrrolidin-1-yl}-3-methoxy-5-methyl-1-oxoheptan-4-yl](methyl)amino}-3-methyl-1-oxobutan-2-yl]” came in with a step yield of 83%. For the same substance, the “crude HPLC purity” value under setting [4] is recorded as 90%.

Take “N,2-dimethylalanyl-N-{(1S,2R)-4-{(2S)-2-[(1R,2R)-3-{[(1S)-2-amino-1-benzyl-2-oxo ethyl]amino}-1-methoxy-2-methyl-3-oxopropyl]pyrrolidin-1-yl}-2-methoxy-1-[(1S)-1-methylpropyl]-4-oxobutyl}-N-methyl-L-valinamide, trifluoroacetic acid salt”: the step yield under setting [5] is 20%.

The substance “(2R)—N-[(2S)-1-{[(3R,4S,5S)-3-methoxy-1-{(2S)-2-[(1R,2R)-1-methoxy-2-methyl-3-oxo-3-{[(1S)-2-phenyl-1-(1,3-thiazol-2-yl)ethyl]amino}propyl]pyrrolidin-1-yl}-5-methyl-1-oxoheptan-4-yl](methyl)amino}-3-methyl-1-oxobutan-2-yl]” had a step yield (late stage modification step) of 73%. For the same substance, the “final HPLC purity” value under setting [1] worked out at 100%.

Take “(2S)-N-[(2S)-1-{[(3R,4S,5S)-1-{(2S)-2-[(1R,2R)-3-{[2-(cyclohepta-2,4,6-trien-1-yl)ethyl]amino}-1-methoxy-2-methyl-3-oxopropyl]pyrrolidin-1-yl}-3-methoxy-5-methyl-1-oxoheptan-4-yl](methyl)amino}-3-methyl-1-oxobutan-2-yl]”: the step yield (late stage modification step) is reported as 89% yield. Moreover, the “crude HPLC purity” value under setting [4] came to 91%.

Consider “N^2-(3-{[(9H-fluoren-9-ylmethoxy)carbonyl]amino}-2,2-dimethylpropanoyl)-N-{(3R,4S,5S)-3-methoxy-1-[(2S)-2-{(1R,2R)-1-methoxy-2-methyl-3-oxo-3-[(2-phenylethyl)amino]propyl}pyrrolidin-1-yl]-5-methyl-1-oxoheptan-4-yl}-N-methyl-L-valinamide”, for which the step yield (coupling step) came to 65%.

For the substance “2-methylalanyl-N-{(3R,4S,5S)-3-methoxy-1-[(2S)-2-{(1R,2R)-1-methoxy-2-methyl-3-oxo-3-[(2-phenylethyl)amino]propyl}pyrrolidin-1-yl]-5-methyl-1-oxoheptan-4-yl}-N-methyl-L-valinamide, acetic acid salt”, under “late stage modification step, acetic acid salt”, the step yield was found to be 49%.

For “methyl N-{(2R,3R)-3-methoxy-3-[(2S)-1-{(3R,4S,5S)-3-methoxy-5-methyl-4-[methyl(L-valyl)amino]heptanoyl}pyrrolidin-2-yl]-2-methylpropanoyl}-L-phenylalaninate”, the step yield (late stage modification step) is 67%. Moreover, the “final HPLC purity” value under setting [2] is greater than 98%.

As for “N,2-dimethylalanyl-N-{(1S,2R)-4-{(2S)-2-[(1R,2R)-3-{[(1S)-1-benzyl-2-oxo-2-(propylamino)ethyl]amino}-1-methoxy-2-methyl-3-oxopropyl]pyrrolidin-1-yl}-2-methoxy-1-[(1S)-1-methylpropyl]-4-oxobutyl}-N-methyl-L-valinamide, trifluoroacetic acid salt”, under setting [5], the step yield is given as 20%.

Under “coupling step”, “N-[(9H-fluoren-9-ylmethoxy)carbonyl]-2-methylalanyl-N-{(3R,4S,5S)-3-methoxy-1-[(2S)-2-{(1R,2R)-1-methoxy-2-methyl-3-oxo-3-[(2-phenylethyl)amino]propyl}pyrrolidin-1-yl]-5-methyl-1-oxoheptan-4-yl}-N-methyl-L-valinamide” showed a step yield of 19%.

In the case of “N^2-[(9H-fluoren-9-ylmethoxy)carbonyl]-N-[(3R,4S,5S)-3-methoxy-1-{(2S)-2-[(1R,2R)-1-methoxy-2-methyl-3-oxo-3-{[(1S)-2-phenyl-1-(1,3-thiazol-2-yl)ethyl]amino}propyl]pyrrolidin-1-yl}-5-methyl-1-oxoheptan-4-yl]-N-methyl-L-valinamide”, the step yield (coupling step) is reported as 45%.

As for “2-methylalanyl-N-[(3R,4S,5S)-3-methoxy-1-{(2S)-2-[(1R,2R)-1-methoxy-2-methyl-3-oxo-3-{[(1-phenylcyclopropyl)methyl]amino}propyl]pyrrolidin-1-yl}-5-methyl-1-oxoheptan-4-yl]-N-methyl-L-valinamide”, the step yield (late stage modification step) is reported as 83%.

Where the note is “coupling step”, “1,2-dimethyl-L-prolyl-N-[(3R,4S,5S)-1-{(2S)-2-[(1R,2R)-3-{[(2S)-3-(4-aminophenyl)-1-methoxy-1-oxopropan-2-yl]amino}-1-methoxy-2-methyl-3-oxopropyl]pyrrolidin-1-yl}-3-methoxy-5-methyl-1-oxoheptan-4-yl]-N-methyl-L-valinamide” had a step yield of 51%. For the same substance, the “final HPLC purity” value under setting [3] came out at 100%.

In the case of “2-methyl-L-prolyl-N-[(3R,4S,5S)-1-{(2S)-2-[(1R,2R)-3-{[(1S)-1-carboxy-2-phenylethyl]amino}-1-methoxy-2-methyl-3-oxopropyl]pyrrolidin-1-yl}-3-methoxy-5-methyl-1-oxoheptan-4-yl]-N-methyl-L-valinamide”, the step yield (late stage modification step) was 89%. Further, the “final HPLC purity” value under setting [2] is greater than 98%.

For “N˜2˜-{[(3R)-3-fluoropyrrolidin-3-yl]carbonyl}-N-[(3R,4S,5S)-3-methoxy-1-{(2S)-2-[(1R,2R)-1-methoxy-2-methyl-3-oxo-3-{[(1S)-2-phenyl-1-(1,3-thiazol-2-yl)ethyl]amino}propyl]pyrrolidin-1-yl}-5-methyl-1-oxoheptan-4-yl]-N-methyl-L-valinamide”, the step yield (late stage modification step) worked out at 60%. Also, the “final HPLC purity” value under setting [1] worked out at 100%.

With “2-methylalanyl-N-[(3R,4S,5S)-3-methoxy-1-{(2S)-2-[(1R,2R)-1-methoxy-3-{[(2S)-1-methoxy-1-oxo-3-phenylpropan-2-yl]amino}-2-methyl-3-oxopropyl]pyrrolidin-1-yl}-5-methyl-1-oxoheptan-4-yl]-N-methyl-L-valinamide”, the step yield (late stage modification step) worked out at 65%.

For “N,2-dimethylalanyl-N-{(1S,2R)-4-{(2S)-2-[(1R,2R)-3-{[(1S)-1-benzyl-2-(diethylamino)-2-oxoethyl]amino}-1-methoxy-2-methyl-3-oxopropyl]pyrrolidin-1-yl}-2-methoxy-1-[(1S)-1-methylpropyl]-4-oxobutyl}-N-methyl-L-valinamide, trifluoroacetic acid salt”, under setting [5], the step yield amounted to 30%.

As for “N,2-dimethylalanyl-N-{(1S,2R)-4-{(2S)-2-[(1R,2R)-3-{[(1S)-1-benzyl-2-(methylamino)-2-oxoethyl]amino}-1-methoxy-2-methyl-3-oxopropyl]pyrrolidin-1-yl}-2-methoxy-1-[(1S)-1-methylpropyl]-4-oxobutyl}-N-methyl-L-valinamide, trifluoroacetic acid salt”, the step yield under setting [5] is given as 30%.
